Experimental data: patent US9938322B2 (priority 2013, dated 2018)
Strings that start with PEPTIDE1 are HELM notation: dots part the residues, brackets hold end groups and non-standard residues. Where no end group is shown, it is not given here. [ ]: non-standard residue; d: D form. Cha = N[C@@H](CC1CCCCC1)C(=O)O; Agp = N=C(N)NC[C@H](N)C(=O)O; Tle = CC(C)(C)[C@H](N)C(=O)O; dDab = NCC[C@@H](N)C(=O)O; Orn = NCCC[C@H](N)C(=O)O; Dab = NCC[C@H](N)C(=O)O

Assay: general procedure: Fmoc solid-phase peptide synthesis; preloaded Fmoc-amino acid 2-chlorotrityl resins
Details: whole synthesis, scale of the general procedure approximately 80 mg resin per vessel

“PEPTIDE1{W.S.Y.[Dab].[Orn].[D-Dab].[Dab].W.[Dab].V.A.S.[dP].P}$PEPTIDE1,PEPTIDE1,1:R1-14:R2$$$V2.0” and “PEPTIDE1{W.S.Y.[Dab].[Orn].[D-Dab].[Dab].W.[Dab].[Cha].A.S.[dP].P}$PEPTIDE1,PEPTIDE1,1:R1-14:R2$$$V2.0” are the same in “purity (crude or final not stated)” value: 95% for the first, 95% for the second.

Compared with “PEPTIDE1{W.S.Y.[Dab].[Orn].[D-Dab].[Dab].W.[Dab].[Nva].A.S.[dP].P}$PEPTIDE1,PEPTIDE1,1:R1-14:R2$$$V2.0”, “PEPTIDE1{W.S.Y.[Dab].[Orn].[Dab].[Dab].W.[Dab].[tBuGly].A.S.[dP].P}$PEPTIDE1,PEPTIDE1,1:R1-14:R2$$$V2.0” is lower in “purity (crude or final not stated)” value: 90% for the first, 87% for the second.

First: PEPTIDE1{W.S.[Cha].[Dab].[Orn].[DDap].[Dab].W.[Dab].[tBuGly].A.S.[dP].P}$PEPTIDE1,PEPTIDE1,1:R1-14:R2$$$V2.0
Second: PEPTIDE1{W.S.[Cha].[Dab].[Orn].[Dab].[Dab].W.[Dab].[tBuGly].A.S.[dP].P}$PEPTIDE1,PEPTIDE1,1:R1-14:R2$$$V2.0
The “purity (crude or final not stated)” value of the first is higher: 98% for the first, 96% for the second.

Compared with “PEPTIDE1{W.S.[tBuGly].[Dab].[Orn].[D-Dab].[Dab].W.[Dab].[Nva].A.S.[dP].P}$PEPTIDE1,PEPTIDE1,1:R1-14:R2$$$V2.0”, “PEPTIDE1{W.S.[tBuGly].[Dab].[Orn].[D-Dab].[Dab].W.[Dab].[tBuGly].A.S.[dP].P}$PEPTIDE1,PEPTIDE1,1:R1-14:R2$$$V2.0” is lower in “purity (crude or final not stated)” value: 92% for the first, 86% for the second.

“PEPTIDE1{W.[Dap(2,3-OHpropionyl)].[Cha].[Dab].[Orn].[DDab].[Dab].W.[Dab].[tBuGly].A.S.[dP].P}$PEPTIDE1,PEPTIDE1,1:R1-14:R2$$$V2.0” and “PEPTIDE1{W.[Dap(AcThr)].[Cha].[Dab].[Orn].[DDab].[Dab].W.[Dab].[tBuGly].A.S.[dP].P}$PEPTIDE1,PEPTIDE1,1:R1-14:R2$$$V2.0” are the same in “purity (crude or final not stated)” value: 92% for the first, 92% for the second.

First: PEPTIDE1{W.[Dap(Thr)].[Cha].[Dab].[Orn].[DDab].[Dab].W.[Dab].[tBuGly].A.S.[dP].P}$PEPTIDE1,PEPTIDE1,1:R1-14:R2$$$V2.0
Second: PEPTIDE1{W.[Dap].W.[Dab].[Orn].[D-Dab].[Dab].W.[Dab].[tBuGly].A.S.[dP].P}$PEPTIDE1,PEPTIDE1,1:R1-14:R2$$$V2.0
The “purity (crude or final not stated)” value of the first is higher: 96% for the first, 91% for the second.

First: PEPTIDE1{W.[Dap].[Cha].[Dab(2PyrMe)].[Orn].[DDab].[Dab].W.[Dab].[tBuGly].A.S.[dP].P}$PEPTIDE1,PEPTIDE1,1:R1-14:R2$$$V2.0
Second: PEPTIDE1{W.[Dap].[Cha].[Dab].[Orn].[D-Dab].[Dab].W.[Dab].[tBuGly].A.S.[dP].[Pic]}$PEPTIDE1,PEPTIDE1,1:R1-14:R2$$$V2.0
The “purity (crude or final not stated)” value of the first is lower: 91% for the first, 94% for the second.

Compared with “PEPTIDE1{W.[Dap].[Cha].[Dab].[Orn].[D-Dab].[Dab].W.[Dab].[tBuGly].A.S.[dP].[Tic(7OH)]}$PEPTIDE1,PEPTIDE1,1:R1-14:R2$$$V2.0”, “PEPTIDE1{W.[Dap].[Cha].[Dab].[Orn].[DDab].[Dab].W.[Dab].[tBuGly].A.S.[dP].P}$PEPTIDE1,PEPTIDE1,1:R1-14:R2$$$V2.0” is higher in “purity (crude or final not stated)” value: 91% for the first, 95% for the second.

Going from “PEPTIDE1{W.[Dap].[Cha].[Dab].[Orn].[DDab].[Dab].W.[Dab].[tBuGly].[Ser(Me)].S.[dP].P}$PEPTIDE1,PEPTIDE1,1:R1-14:R2$$$V2.0” to “PEPTIDE1{W.[Hse].[Cha].[Dab].[Orn].[DDab].[Dab].W.[Dab].[tBuGly].A.S.[dP].P}$PEPTIDE1,PEPTIDE1,1:R1-14:R2$$$V2.0”, the “purity (crude or final not stated)” value falls from 97% to 95%.

First: PEPTIDE1{W.[Ser(Me)].[Cha].[Dab].[Orn].[DDab].[Dab].W.[Dab].[tBuGly].A.S.[dP].P}$PEPTIDE1,PEPTIDE1,1:R1-14:R2$$$V2.0
Second: PEPTIDE1{Y.S.Y.[Dab].[Orn].[D-Dab].[Dab].W.[Dab].[Chg].A.S.[dP].P}$PEPTIDE1,PEPTIDE1,1:R1-14:R2$$$V2.0
The “purity (crude or final not stated)” value of the first is lower: 93% for the first, 95% for the second.

First: PEPTIDE1{Y.S.Y.[Dab].[Orn].[DDab].[Dab].W.[Dab].[tBuGly].A.S.[dP].P}$PEPTIDE1,PEPTIDE1,1:R1-14:R2$$$V2.0
Second: PEPTIDE1{Y.S.Y.[Dab].[Orn].[DDab].[Dab].W.[Dab].[tBuGly].A.Y.[dP].P}$PEPTIDE1,PEPTIDE1,1:R1-14:R2$$$V2.0
The “purity (crude or final not stated)” value of the first is lower: 86% for the first, 95% for the second.

Compared with “PEPTIDE1{Y.S.[tBuGly].[Dab].[Orn].[D-Dab].[Dab].W.[Dab].[Cha].A.S.[dP].P}$PEPTIDE1,PEPTIDE1,1:R1-14:R2$$$V2.0”, “PEPTIDE1{Y.S.[tBuGly].[Dab].[Orn].[D-Dab].[Dab].W.[Dab].[Chg].A.S.[dP].P}$PEPTIDE1,PEPTIDE1,1:R1-14:R2$$$V2.0” is higher in “purity (crude or final not stated)” value: 92% for the first, 93% for the second.

Going from “PEPTIDE1{[Nva].A.Y.[Dab].[Dab].[DDab].[Dab].W.[Dab].[Chg].S.T.[dP].P}$PEPTIDE1,PEPTIDE1,1:R1-14:R2$$$V2.0” to “PEPTIDE1{[Nva].A.Y.[Dab].[Orn].[D-Dab].[Dab].W.[Dab].[tBuGly].A.S.[dP].P}$PEPTIDE1,PEPTIDE1,1:R1-14:R2$$$V2.0”, the “purity (crude or final not stated)” value falls from 93% to 85%.

Going from “PEPTIDE1{[Nva].A.[Cha].[Dab].[Orn].[DDab].[Dab].W.[Dab].[Chg].A.S.[dP].P}$PEPTIDE1,PEPTIDE1,1:R1-14:R2$$$V2.0” to “PEPTIDE1{[Nva].S.W.[Dab].[Orn].[D-Dab].[Dab].W.[Dab].[tBuGly].A.S.[dP].P}$PEPTIDE1,PEPTIDE1,1:R1-14:R2$$$V2.0”, the “purity (crude or final not stated)” value falls from 93% to 92%.

Going from “PEPTIDE1{[Nva].S.Y.[Dab].[Orn].[D-Dab].[Dab].W.[Dab].[tBuGly].A.S.[dP].P}$PEPTIDE1,PEPTIDE1,1:R1-14:R2$$$V2.0” to “PEPTIDE1{[Nva].S.Y.[Dab].[Orn].[D-Dab].[Dab].W.[Dab].[tBuGly].S.S.[dP].P}$PEPTIDE1,PEPTIDE1,1:R1-14:R2$$$V2.0”, the “purity (crude or final not stated)” value falls from 90% to 75%.

Going from “PEPTIDE1{[Nva].S.Y.[Dab].[Orn].[DDab].[Dab].W.[Dab].[Cha].A.S.[dP].P}$PEPTIDE1,PEPTIDE1,1:R1-14:R2$$$V2.0” to “PEPTIDE1{[Nva].S.Y.[Dab].[Orn].[DDab].[Dab].W.[Dab].[Chg].A.S.[dP].P}$PEPTIDE1,PEPTIDE1,1:R1-14:R2$$$V2.0”, the “purity (crude or final not stated)” value falls from 95% to 79%.

Compared with “PEPTIDE1{[Nva].S.[Cha].[Dab].[Orn].[DDab].[Dab].W.[Dab].[Chg].A.S.[dP].P}$PEPTIDE1,PEPTIDE1,1:R1-14:R2$$$V2.0”, “PEPTIDE1{[Nva].S.[Cha].[Dab].[Orn].[DDab].[Dab].W.[Dab].[tBuGly].S.S.[dP].P}$PEPTIDE1,PEPTIDE1,1:R1-14:R2$$$V2.0” is lower in “purity (crude or final not stated)” value: 94% for the first, 83% for the second.

Compared with “PEPTIDE1{[Nva].S.[Phe(4CF3)].[Dab].[Orn].[DDab].[Dab].W.[Dab].[tBuGly].A.S.[dP].P}$PEPTIDE1,PEPTIDE1,1:R1-14:R2$$$V2.0”, “PEPTIDE1{[Nva].S.[Phe(4F)].[Dab].[Orn].[D-Dab].[Dab].W.[Dab].[tBuGly].A.S.[dP].P}$PEPTIDE1,PEPTIDE1,1:R1-14:R2$$$V2.0” is higher in “purity (crude or final not stated)” value: 88% for the first, 90% for the second.

Compared with “PEPTIDE1{[Nva].S.[Tyr(3F)].[Dab].[Orn].[DDab].[Dab].W.[Dab].[tBuGly].A.S.[dP].P}$PEPTIDE1,PEPTIDE1,1:R1-14:R2$$$V2.0”, “PEPTIDE1{[Nva].S.[tBuGly].[Dab].K.[DDab].[Dab].W.[Dab].[Cha].A.S.[dP].P}$PEPTIDE1,PEPTIDE1,1:R1-14:R2$$$V2.0” is lower in “purity (crude or final not stated)” value: 92% for the first, 88% for the second.

Compared with “PEPTIDE1{[Nva].S.[tBuGly].[Dab].[Orn].[DDab].[Dab].W.[Dab].[Cha].A.S.[dP].P}$PEPTIDE1,PEPTIDE1,1:R1-14:R2$$$V2.0”, “PEPTIDE1{[Nva].S.[tBuGly].[Dab].[Orn].[DDab].[Dab].W.[Dab].[Chg].A.S.[dP].P}$PEPTIDE1,PEPTIDE1,1:R1-14:R2$$$V2.0” is lower in “purity (crude or final not stated)” value: 95% for the first, 91% for the second.

Going from “Trp-Ala(3PyrMeUr)-Cha-Dab-Orn-^DDab-Dab-Trp-Dab-tBuGly-Ala-Ser-^DPro-Pro” to “Trp-Ala(iPrUr)-Cha-Dab-Orn-^DDab-Dab-Trp-Dab-tBuGly-Ala-Ser-^DPro-Pro”, the “purity (crude or final not stated)” value rises from 92% to 94%.

Compared with “Trp-Ala-Cha-Dab-Orn-Dab-Dab-Trp-Dab-tBuGly-Ala-Ser-^DPro-Pro((4S)OBn)”, “Trp-Ala-Cha-Dab-Orn-^DDab-Dab-Trp-Dab-tBuGly-Ala-Ala(iPrUr)-^DPro-Pro” is lower in “purity (crude or final not stated)” value: 98% for the first, 93% for the second.

Compared with “Trp-Ala-Cha-Dab-Orn-^DDab-Dab-Trp-Dab-tBuGly-Tza-Ser-^DPro-Pro”, “Trp-Ala-Chg-Dab-Orn-^DDab-Dab-Trp-Dab-tBuGly-Ser-Ser-^DPro-Pro((3S)OH)” is higher in “purity (crude or final not stated)” value: 91% for the first, 97% for the second.

First: Trp-Dab(2PyrMe)-Cha-Dab-Orn-^DDab-Dab-Trp-Dab-tBuGly-Ala-Ser-^DPro-Pro
Second: Trp-Dap(iPr)-Cha-Dab-Orn(iPr)-^DDab-Dab-Trp-Dab-tBuGly-Ser-Ser-^DPro-Pro
The “purity (crude or final not stated)” value of the first is higher: 90% for the first, 88% for the second.

Going from “Trp-Dap(iPr)-Cha-Dab-Orn-^DDab-Dab-Trp-Hse-tBuGly-Ala-Ser-^DPro-Pro” to “Trp-Dap-Cha-Dab-Orn-Pip-Dab-Trp-Dab-tBuGly-Ala-Ser-^DPro-Pro”, the “purity (crude or final not stated)” value falls from 96% to 93%.

Going from “Tza-Ser-Cha-Dab-Orn-^DDab-Dab-Trp-Dab-tBuGly-Ala-Ser-^DPro-Pro” to “VA[Cha][Dab][Orn][dDab][Dab]W[Dab][Tle]AS[dP]P”, the “purity (crude or final not stated)” value rises from 87% to 88%.

First: VS[Cha][Dab][Orn][dDab][Dab]W[Dab][Tle]AS[dP]P
Second: WA[Cha][Dab][Orn][dDab][Dab]W[Dab][Tle][Agp]S[dP]P
The “purity (crude or final not stated)” value of the first is higher: 92% for the first, 85% for the second.
